Assay results as given in paper PMC9360443.
No constants are given. Whether binding was seen depends on the method and setting. Binding seen in cells or lysates may run through a third protein. Some entries that bind do so weakly or less than the wild type. Sequences can lack the tags named with a protein.

The chains behind the UniProt entries cited, without tags or fusion partners.
UniProt P98170: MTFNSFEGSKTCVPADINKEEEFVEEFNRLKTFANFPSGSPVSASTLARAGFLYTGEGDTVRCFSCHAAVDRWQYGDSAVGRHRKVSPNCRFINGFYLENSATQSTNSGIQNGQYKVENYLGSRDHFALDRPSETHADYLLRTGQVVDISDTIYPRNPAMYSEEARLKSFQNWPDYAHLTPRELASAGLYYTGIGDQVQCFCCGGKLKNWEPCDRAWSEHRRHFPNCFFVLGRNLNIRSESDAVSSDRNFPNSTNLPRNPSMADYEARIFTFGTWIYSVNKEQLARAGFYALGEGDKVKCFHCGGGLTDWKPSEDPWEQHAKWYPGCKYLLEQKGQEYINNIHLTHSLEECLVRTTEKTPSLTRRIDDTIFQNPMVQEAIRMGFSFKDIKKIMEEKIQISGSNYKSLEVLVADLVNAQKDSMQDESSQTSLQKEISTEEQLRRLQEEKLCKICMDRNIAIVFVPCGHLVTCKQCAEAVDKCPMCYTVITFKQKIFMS

T1: FLAG-LATS1^WT (human) (UniProt O95835)
T1 sequence: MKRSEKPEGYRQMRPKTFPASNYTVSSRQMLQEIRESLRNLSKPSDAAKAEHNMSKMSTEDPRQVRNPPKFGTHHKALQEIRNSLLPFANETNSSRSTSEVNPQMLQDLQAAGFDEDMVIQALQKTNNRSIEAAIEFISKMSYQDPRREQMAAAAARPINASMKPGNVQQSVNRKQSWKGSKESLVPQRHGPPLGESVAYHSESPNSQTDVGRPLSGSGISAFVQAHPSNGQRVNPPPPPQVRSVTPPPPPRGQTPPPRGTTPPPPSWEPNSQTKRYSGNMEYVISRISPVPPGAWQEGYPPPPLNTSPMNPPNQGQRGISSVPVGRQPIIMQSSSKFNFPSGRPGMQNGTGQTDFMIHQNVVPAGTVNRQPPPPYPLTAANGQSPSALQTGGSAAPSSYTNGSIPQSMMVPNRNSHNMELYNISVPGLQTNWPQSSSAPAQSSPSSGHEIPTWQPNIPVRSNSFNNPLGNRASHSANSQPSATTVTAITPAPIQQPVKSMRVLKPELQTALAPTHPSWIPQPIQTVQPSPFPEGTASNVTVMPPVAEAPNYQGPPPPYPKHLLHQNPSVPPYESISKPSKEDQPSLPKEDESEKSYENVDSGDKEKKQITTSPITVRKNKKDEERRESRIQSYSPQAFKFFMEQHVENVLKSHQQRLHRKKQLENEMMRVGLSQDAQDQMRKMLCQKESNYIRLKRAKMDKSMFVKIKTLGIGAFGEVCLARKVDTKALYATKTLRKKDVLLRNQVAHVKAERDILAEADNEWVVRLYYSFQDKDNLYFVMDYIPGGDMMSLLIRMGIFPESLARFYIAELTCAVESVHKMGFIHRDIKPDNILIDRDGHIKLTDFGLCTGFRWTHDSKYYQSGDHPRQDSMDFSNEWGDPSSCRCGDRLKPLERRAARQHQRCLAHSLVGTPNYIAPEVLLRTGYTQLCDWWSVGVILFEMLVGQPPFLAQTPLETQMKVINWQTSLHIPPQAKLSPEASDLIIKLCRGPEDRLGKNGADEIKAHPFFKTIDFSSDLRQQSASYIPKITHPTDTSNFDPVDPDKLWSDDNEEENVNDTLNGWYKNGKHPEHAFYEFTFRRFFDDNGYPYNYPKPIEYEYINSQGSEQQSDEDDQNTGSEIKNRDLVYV


What was measured:
[1] = target: T1, FLAG-LATS1^WT (human); assay: co-IP; A375 lysate, FLAG-LATS1 (WT or KD) immunoprecipitated with anti-FLAG beads, GFP-SMAC and HA-RASSF1A co-transfected, serum-deprived; 1% NP40, 20 mM HEPES, 300 mM NaCl, 1 mM EDTA, 1 mM EGTA, 10 mM NaF; MST2 or C-IAP1 siRNA where indicated
[2] = target: T1, FLAG-LATS1^WT (human); assay: co-IP; A375 lysate, FLAG-LATS1 immunoprecipitated with anti-FLAG beads, with HA-RASSF1A or empty vector; 1% NP40, 150 mM NaCl lysis buffer
[3] = target: T1, FLAG-LATS1^WT (human); assay: co-IP; A375 lysate, FLAG-LATS1 (WT or KD) immunoprecipitated with anti-FLAG beads, GFP-SMAC and HA-RASSF1A co-transfected, serum-deprived; 1% NP40, 20 mM HEPES, 300 mM NaCl, 1 mM EDTA, 1 mM EGTA, 10 mM NaF; MST2 or C-IAP1 siRNA where indicated; remark: listed apart in the source

binding [1] | binding [2] | binding [3] | Molecule
binds |  |  | XIAP (from UniProt P98170 1-497)
 | binds | binds | HA-RASSF1A (protein, UniProt Q9NS23-2 1-340) MSGEPELIELRELAPAGRAGKGRTRLERANALRIARGTACNPTRQLVPGRGHRFQPAGPATHTWCDLCGDFIWGVVRKGLQCAHCKFTCHYRCRALVCLDCCGPRDLGWEPAVERDTNVDEPVEWETPDLSQAEIEQKIKEYNAQINSNLFMSLNKDGSYTGFIKVQLKLVRPVSVPSSKKPPSLQDARRGPGRGTSVRRRTSFYLPKDAVKHLHVLSRTRAREVIEALLRKFLVVDDPRKFALFERAERHGQVYLRKLLDDEQPLRLRLLAGPSDKALSFVLKENDSGEVNWDAFSMPELHNFLRILQREEEEHLRQILQKYSYCRQKIQEALHACPLG
